Results: PubChem BioAssay AID540303 (National Center for Advancing Translational Sciences (NCATS), 2011)
Among all 330,000 compounds or so, about 1,000 (0.3%) were called active. Inconclusive means that the source gave no clear call. Such entries were picked first, then a sample of the others. Calls follow the shape of the dose curve; as a rule, active = well fitted inhibition curve with a large enough effect; inconclusive = small, poorly fitted or top-dose-only effect; inactive = no such curve, though single readings can be large or run the other way; tested in mouse RAW 264.7 cells. Where the call is inconclusive, the potency comes from a doubtful curve fit.

Experiment: qHTS for Inhibitors of Cell Surface uPA Generation; also: nearly all actives have a fitted effect of over 55% in size
Conditions: cell surface uPA generation assay; series mostly up to 38.3 µM; activity change, negative = inhibition: at the top concentration
Outline: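 RAW 264.7, 4000 cells/well, o/n 37 C; cpd 1:5 dilution, up to 38.3 uM final; 24 h 37 C/5% CO2 with reagent; ATP-Lite lum. High ATP = LF entry blocked.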
% is scaled to controls: 0 for no effect and ±100 for the full control effect; potency is read from the fitted curve at half-maximal effect.

Row | Structure (SMILES) | Potency | activity change, negative = inhibition
1 | Cc1onc(-c2ccccc2)c1C(=O)NC(=S)NNC(=O)c1ccc(O)cc1O | inconclusive: 2.51 µM [inhibitor, full curve, poor fit] | 
2 | CC(C)(C)c1ccc(C(=O)NNC(=O)c2cccc(-n3cnnn3)c2)cc1 |  | inactive: 2.05%
3 | Cc1cc(S(=O)(=O)NCc2ccncc2)c(C)cc1Br | inconclusive: 3.98 µM [inhibitor, partial curve, poor fit] | 
4 | COc1ccc2cc(CCC(C)=O)ccc2c1 | inconclusive: 7.08 µM [inhibitor, partial curve, poor fit] | 
5 | Cc1ccc(S(=O)(=O)N(CC(=O)NCc2cccnc2)c2ccc(F)cc2)cc1 |  | inactive: 1.49%
6 | COCCNc1nc(C)cc(-c2cc(C(=O)NCc3ccccc3)on2)n1 |  | inactive: -1.5%
7 | Cc1nnc(NC(=O)c2nc(S(=O)(=O)Cc3ccccc3C)ncc2Cl)s1 | inconclusive: 15.8 µM [inhibitor, single point] | 
8 | Cc1cc(=O)c2cc(C(=O)c3ccccc3)ccc2[nH]1 | inconclusive: 12.6 µM [inhibitor, single point] | 
9 | CC(=O)c1cc(NC(=O)c2cccc(C(F)(F)F)c2)c(=O)oc1/C=C/N(C)C |  | inactive: 1.65%
10 | FC(F)(F)c1ccc(-c2csc(-c3ccno3)n2)cc1 | inconclusive: 8.91 µM [inhibitor, partial curve, poor fit] | 
11 | COc1cc([N+](=O)[O-])ccc1NC(=O)NNC(=O)C(C)Oc1ccc(F)cc1F (configuration not stated) | inconclusive: 28.2 µM [inhibitor, single point] | 
12 | COc1ccc2[nH]c(=O)c(CN(C(=O)c3cccnc3)c3ccccc3)cc2c1 |  | inactive: 5.38%
13 | COC(CNC(=O)C1CCCN(S(=O)(=O)c2c(C)noc2/C=C/c2cccs2)C1)OC (configuration not stated) | inconclusive: 11.2 µM [inhibitor, partial curve] | 
14 | CC(C)C/C(O)=C/c1nc2cc(Cl)ccc2oc1=O | active: 1.41 µM | 
15 | CCCCCCOc1ccc(OC(=O)c2cccnc2)cc1 | inconclusive: 3.98 µM [inhibitor, full curve] | 
16 | CCOc1ccc(/C=C(\C(=O)O)c2ccc(S(=O)(=O)N3CCCCC3)s2)cc1OC | inconclusive: 5.62 µM [inhibitor, partial curve, poor fit] | 
17 | O=C(Nc1cccc(Cl)c1)Nc1ccccc1C(=O)O | active: 8.91 µM | 
18 | C[C@H]1O[C@@H](O[C@H]2CC[C@@]3(C)C(CC[C@]4(C)C3C=C[C@]35OC[C@@]6(CCC(C)(C)C[C@H]63)[C@@H](O)C[C@]54C)[C@]2(C)CO)[C@H](O)[C@@H](O[C@@H]2O[C@H](CO)[C@@H](O)[C@H](O)[C@H]2O)[C@H]1O (some centres not stated) |  | inactive: 3.06%
19 | CCCCNC(=O)C1CCN(Cc2ccc(OCc3ccccc3)c(OC)c2)CC1 | inconclusive: 11.2 µM [inhibitor, partial curve, poor fit] | 
20 | COCC(=O)N(Cc1cc2ccc(C)cc2[nH]c1=O)c1ccc(C)cc1C |  | inactive: -0.793%
21 | CN(CC(=O)Nc1ccccc1Br)C(=O)c1ccc(-c2ccc(Cl)cc2)o1 | inconclusive: 4.47 µM [inhibitor, partial curve, poor fit] | 

Single records, as listed above:
CCCCNC(=O)C1CCN(Cc2ccc(OCc3ccccc3)c(OC)c2)CC1 as listed: Potency: inconclusive: 11.2 µM [inhibitor, partial curve, poor fit]
COc1cc([N+](=O)[O-])ccc1NC(=O)NNC(=O)C(C)Oc1ccc(F)cc1F (configuration not stated) as listed: Potency: inconclusive: 28.2 µM [inhibitor, single point]
COc1ccc2[nH]c(=O)c(CN(C(=O)c3cccnc3)c3ccccc3)cc2c1 as listed: activity change, negative = inhibition: inactive: 5.38%

Next part:

Row | Structure (SMILES) | Potency | activity change, negative = inhibition
22 | O=C(Cn1ncc(Cl)c(Cl)c1=O)NC1CCCCC1 | active: 10 µM | 
23 | Cc1ccc(S(=O)(=O)N2CCCCCC2)cc1C(=O)Nc1cccnc1 |  | inactive: 18.4%
24 | COc1ccc(-c2cccc(-c3cc(=O)oc4cc(OC)cc(OC)c34)c2)cc1 | active: 0.794 µM | 
25 | Cc1ccccc1Oc1cc(NC(=O)Cn2cnc([N+](=O)[O-])c2)cc([N+](=O)[O-])c1 | inconclusive: 11.2 µM [inhibitor, partial curve, poor fit] | 
26 | COc1ccc(-c2cc(C)no2)cc1S(=O)(=O)Nc1cccc(C)c1 | inconclusive: 12.6 µM [inhibitor, single point] | 
27 | COc1ccc(/C=N/N2CCN(c3ccccc3)CC2)cc1Br | inconclusive: 0.316 µM [inhibitor, full curve, poor fit] | 
28 | Cc1ccnc(Nc2nc(-c3ccccc3)cs2)c1 | inconclusive: 31.6 µM [inhibitor, partial curve, poor fit] | 
29 | COc1ccc(NC(=O)c2cccc(Oc3ccc([N+](=O)[O-])cc3Cl)c2)cc1 |  | inactive: -13.8%
30 | O=C(O)c1cccc(N2C(=O)/C(=C/c3ccc([N+](=O)[O-])cc3)C=C2c2ccccc2)c1 | inconclusive: 28.2 µM [inhibitor, single point] | 
31 | O=C(/C=C/c1ccc2c(c1)OCO2)Nc1nncs1 | inconclusive: 2.24 µM [inhibitor, full curve] | 
32 | O=C(CN1C(=O)C2(OCCO2)c2cc(Br)ccc21)NO | inconclusive: 6.31 µM [inhibitor, partial curve, poor fit] | 
33 | O=[N+]([O-])c1cc2c(cc1CN1CCN(CCOCCO)CC1)OCO2 | inconclusive: 12.6 µM [inhibitor, single point] | 
34 | C=CCN1C(=O)NC(c2ccccc2)(C(F)(F)F)S/C1=C(\C#N)c1nnc(N2CCOCC2)n1-c1ccccc1 (configuration not stated) | inconclusive: 28.2 µM [inhibitor, single point] | 
35 | COc1cc2ccccc2cc1C(=O)NC(=S)Nc1ccc(C(=O)O)cc1 |  | inactive: -0.607%
36 | Cc1ccc(/C=C/c2nnc(-c3cccs3)o2)cc1 | inconclusive: 5.62 µM [inhibitor, partial curve, poor fit] | 
37 | Cc1ccc(S(=O)(=O)/N=C(/c2ccc(F)cc2)N2CCCC2)cc1 |  | inactive: -1.93%
38 | COc1ccccc1CNC(=O)COC(=O)c1ccc(C)s1 |  | inactive: 20.4%
39 | Cc1ccnc(NC(=O)Cc2ccc(-c3ccccc3)cc2)c1 | inconclusive: 5.01 µM [inhibitor, partial curve] | 
40 | O=c1cccc2c1c1cc[nH]c3ccc(=O)n2c31 | inconclusive: 7.94 µM [inhibitor, single point] | 
41 | CCOC(=O)N1N=C(c2ccc(OC)cc2)CC1(O)C(F)(F)F (configuration not stated) | inconclusive: 11.2 µM [inhibitor, partial curve, poor fit] | 
42 | CC(C)Nc1ccc(C(CC(N)=O)NC(=O)c2ccc(Br)cc2)cc1[N+](=O)[O-] (configuration not stated) | inconclusive: 3.55 µM [inhibitor, partial curve] | 
